These are yes or no findings as the source states them, for the method shown. In cells and extracts the contact can be indirect. Some binding calls cover weakened binding; strength is not graded here.

Chains of the proteins cited; added tags and fusions are not shown. Lines headed by an entry give the natural chain unless they say otherwise; changes in a name come on top.
UniProt P56696: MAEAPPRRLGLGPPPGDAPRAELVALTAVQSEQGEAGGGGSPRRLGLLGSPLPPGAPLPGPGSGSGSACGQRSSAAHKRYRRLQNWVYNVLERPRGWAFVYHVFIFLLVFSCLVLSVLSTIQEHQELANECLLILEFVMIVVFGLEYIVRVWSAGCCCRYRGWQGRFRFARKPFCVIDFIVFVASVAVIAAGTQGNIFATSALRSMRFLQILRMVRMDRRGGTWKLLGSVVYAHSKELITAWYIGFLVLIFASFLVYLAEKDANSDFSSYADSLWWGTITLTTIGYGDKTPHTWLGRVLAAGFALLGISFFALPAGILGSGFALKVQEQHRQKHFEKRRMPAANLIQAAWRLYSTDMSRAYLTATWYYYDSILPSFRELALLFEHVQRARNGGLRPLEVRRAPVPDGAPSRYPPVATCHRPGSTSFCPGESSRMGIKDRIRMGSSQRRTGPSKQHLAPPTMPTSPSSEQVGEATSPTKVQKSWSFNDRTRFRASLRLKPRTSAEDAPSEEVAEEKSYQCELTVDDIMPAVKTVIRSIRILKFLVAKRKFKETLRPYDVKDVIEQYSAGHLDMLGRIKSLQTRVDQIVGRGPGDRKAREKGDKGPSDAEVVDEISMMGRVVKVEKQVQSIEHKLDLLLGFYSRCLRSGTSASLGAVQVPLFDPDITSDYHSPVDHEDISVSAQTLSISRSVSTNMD

We go through seven substances from publication PMC6802650.

In the experiment the target is FLAG-tagged WT KCNQ4 (human) (UniProt P56696). Description: co-IP; cells cotransfected with FLAG-tagged WT KCNQ4 and Myc-tagged KCNQ4 clones; 36 h after transfection whole-cell lysates immunoprecipitated with anti-FLAG beads and immunoblotted. For orientation: In western blotting, separated proteins are transferred to a membrane and probed.

Take “Myc-tagged KCNQ4 p.L281M (from UniProt P56696 1-695)”: the binding entry is reported as “binds”.
As for “Myc-tagged KCNQ4 p.L295P (from UniProt P56696 1-695)”, the entry is “binds”.
As for “Myc-tagged KCNQ4 p.N264S (from UniProt P56696 1-695)”, the entry is “binds”; as for “Myc-tagged KCNQ4 p.R433W (from UniProt P56696 1-695)”, “binds”; as for “Myc-tagged KCNQ4 p.S269F (from UniProt P56696 1-695)”, “binds”.
As for “Myc-tagged KCNQ4 p.S273A (from UniProt P56696 1-695)”, the entry is “binds”; as for “Myc-tagged KCNQ4 p.T278A (from UniProt P56696 1-695)”, “binds”.
